Literature values as cited in patent US10947596B2, “Compositions and methods for identification, assessment, prevention, and treatment of cancer using NFS1 biomarkers and modulators” (Dana-Farber Cancer Institute, Inc., priority 2014, dated 2021).
Where two headings read alike, the source gives them in different places. At least one structure is not confirmed: it was looked up by name or label, or the drawing left a doubt.

Tests used:
ferroptosis = details: cited from earlier work
PTGS2 = details: cited from earlier work

SMILES: CCOc1ccccc1-n1c(C(C)N2CCN(C(=O)COc3ccc(Cl)cc3)CC2)nc2ccccc2c1=O (stereo not drawn) [Erastin]
- ferroptosis (ferroptosis): induce ferroptosis
- ferroptosis (ferroptosis; listed as crastin): triggers ferroptosis
- PTGS2 expression (PTGS2): upregulation
